According to patent publication US20200276330A1 (NANOMAB TECHNOLOGY, published 2020):
Where a chain is given by its changes, count along the chain named. These are yes or no findings as the source states them, for the method shown. Some binding calls cover weakened binding; strength is not graded here.

Protein sequences, listed by entry. Tags and fused reporters are not part of them.
UniProt Q9NZQ7: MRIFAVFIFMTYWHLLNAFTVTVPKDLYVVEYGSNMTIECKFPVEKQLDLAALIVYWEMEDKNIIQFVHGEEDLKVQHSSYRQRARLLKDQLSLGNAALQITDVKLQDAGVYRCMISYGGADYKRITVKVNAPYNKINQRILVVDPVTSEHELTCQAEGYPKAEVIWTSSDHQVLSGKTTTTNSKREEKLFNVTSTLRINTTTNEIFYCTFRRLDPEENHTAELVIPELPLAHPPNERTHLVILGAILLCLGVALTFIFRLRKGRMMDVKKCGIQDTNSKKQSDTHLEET

B1: Nanobody No. 1 (VHH)
VHH: QVQLQESGGGSVQTGGSLRLSCAASTSIYSNNYMAWFSQAPGKGREGVAAVYIDDGRPYYADSVKGRFTISLDSAKNTVYLQMNRLKPEDTAMYYCAAAPGPLSHNYWYTSANYDYWGQGTQVTVSS
notes: Expressed in E. coli WK6 and purified on a nickel column; not shown: HA and His tags (implied by anti-HA detection and nickel column)
B2: Nanobody No. 3 (VHH)
VHH: B1 VHH with A23T, A40S, I53M, V79M, R85S, H105R
notes: as for B1
B3: Nanobody No. 2 (VHH)
VHH: QVQLQESGGGSVQAGGSLRLSCAASGYTYSSDGMGWFRQTPGKEREGVAAISPTGRRTEYADSVKGRFTISRDNNKNMLSLQMNSLKPEDTGMYYCAREGSWSFSLANSAVRSWGQGTQVTVSS
notes: as for B1

molecular target: PD-L1 (coated on the ELISA plate) (UniProt Q9NZQ7); assay: ELISA, coated PD-L1, anti-HA detection

| Binder | binding |
| --- | --- |
| B1 | binds |
| B2 | binds |
| B3 | binds |
